According to PubChem BioAssay AID2685 (National Center for Advancing Translational Sciences (NCATS), 2010):
Some of the results follow. Further columns of the screen follow, without active or inactive calls. Compounds called inactive in the main read-out are mostly missing here. Potencies come from curve fits of mixed quality, noted in brackets.

Assay: qHTS Assay for Lipid Storage Modulators in Drosophila S3 Cells;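 for cell number change: cells counted by Cell Tracker Red CMTPX staining in the red channel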
Details: BODIPY lipid droplet fluorescence, 18-24 h; for cell number change: measured here: cell count max response, cells fed with added oleic acid
Outline: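 Drosophila S3 cells got compounds at several concentrations plus oleic acid (400 uM solution). Laser-scanning cytometry with 488 nm excitation read lipid droplets at 500-530 nm and cells at 575-640 nm. Percent activity was relative to 20 uM Triacsin C.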

[1] = measured here: lipid fluorescence (Fed channel) AC50, cells fed with added oleic acid
[2] = measured here: cell number channel AC50, cells fed with added oleic acid

Structure (SMILES)	cell number change [%]	AC50 [1]	AC50 [2]
CCn1c(COc2ccccc2C)nnc1SCC(=O)O	-8.61	0.82 µM [falling, full curve, poor fit]	
COc1ccc(OCC(=O)Nc2ccc(N3CCC(C)CC3)cc2)cc1	25.6		0.326 µM [rising, partial curve, poor fit]
COc1ccc([N+](=O)[O-])cc1N(CC(O)CN(C)C)S(=O)(=O)c1ccccc1 (stereo unspecified)	-10.6	0.411 µM [falling, full curve, poor fit]	
Cc1onc(C(=O)NCc2cccs2)c1[N+](=O)[O-]	22.8		0.146 µM [rising, full curve, poor fit]
COC(=O)C1=C(C)NC(=O)NC1c1ccc(OCC(=O)N2CCCCC2)cc1 (stereo unspecified)	-21.6		
O=C(NC1CC1)C1CCN(C2CCN(C(=O)/C=C/c3cccs3)CC2)CC1	-2.65	0.13 µM [falling, full curve, poor fit]	
CC(C)(CNS(C)(=O)=O)SCc1ccc(Cl)cc1	7.43		1.3 µM [rising, full curve]
CC(C)=C1SC(N2CCN(Cc3ccccc3)CC2)=NC1=O		2.91 µM [rising, full curve, poor fit]	6.51 µM [rising, single point]
CCOC(=O)N1CCN(C2OC(=O)c3ccccc32)CC1 (stereo unspecified)	-83.4	25.9 µM [falling, partial curve]	32.6 µM [falling, partial curve]
O=C(CO/N=C/c1cccc([N+](=O)[O-])c1)NC1CCCCCC1	34.6	16.4 µM [rising, partial curve]	9.2 µM [rising, partial curve]
CC(=O)NC(CSc1cc(C)nc2ccc(Br)cc12)C(=O)O (stereo unspecified)	-23.1	4.61 µM [rising, single point]	
CCOC(=O)c1cnn(-c2cc(Oc3ccccc3C)ncn2)c1N	21.4		
O=C(CNc1ccc(Cl)cc1)c1ccc(Br)cc1	-2.82		0.58 µM [falling, single point]
COc1ccc(/C=C/C=C2\N=C(SC)SC2=O)cc1	-50		3.66 µM [falling, full curve]
Cc1cc(-c2csc(N)n2)c(C)n1Cc1ccccc1	9.97	0.0731 µM [falling, partial curve, poor fit]	
N#Cc1ccsc1NC(=O)CN1CCN(S(=O)(=O)c2cc(Cl)ccc2Cl)CC1	-39.8	5.17 µM [falling, full curve]	5.8 µM [falling, full curve]
CCc1ccc(-c2cc(C)no2)cc1S(=O)(=O)N1CCN(c2cccc(C)c2C)CC1	176	29.1 µM [rising, partial curve]	18.4 µM [rising, partial curve]

Part of the list above in another layout.
Structure (SMILES) | cell number change [%] | AC50 [1] | AC50 [2]
O=C(NC1CC1)C1CCN(C2CCN(C(=O)/C=C/c3cccs3)CC2)CC1 | -2.65 | 0.13 µM [falling, full curve, poor fit] | 
CC(C)(CNS(C)(=O)=O)SCc1ccc(Cl)cc1 | 7.43 |  | 1.3 µM [rising, full curve]
CC(C)=C1SC(N2CCN(Cc3ccccc3)CC2)=NC1=O |  | 2.91 µM [rising, full curve, poor fit] | 6.51 µM [rising, single point]
CCOC(=O)N1CCN(C2OC(=O)c3ccccc32)CC1 (stereo unspecified) | -83.4 | 25.9 µM [falling, partial curve] | 32.6 µM [falling, partial curve]
